For one series, the system named is human cell types. Description: ABA content in human cell types by HPLC-MS. It counts as cell-based.
Series [1] concerns murine microglial cell line N9. The series can be described thus: ABA content in murine microglia N9 by HPLC-MS. It counts as cell-based. The method, then: Cells from the murine microglial cell line N9 were pre-incubated with or without 50 μM fluridone for 2 hours and then stimulated with 100 ng/ml lipopolysaccharide (LPS) for 24 hours. The ABA content was measured by HPLC-MS (see Materials and Methods) and was compared with that of untreated cells (control). The results are the mean from 2 experiments.
N9 cells were seeded (25×10^6/flask) in IMDM medium containing fetal calf serum, incubated for 3 h at 37° C. with or without 50 μM fluridone and then incubated for 3 days in the absence or in the presence of 200 ng/ml lipopolysaccharide (LPS). Cells were then recovered, washed in phosphate-buffered saline isotonic solution at pH 7.4 (PBS), resuspended in 0.5 ml water and sonicated. An aliquot from each cell lysate (10 μl) was used to assay protein content (using the method by Bradford), the rest was added to methanol (2 ml) and 1400 cpm [^3H]-ABA (Amersham, Milan, Italy) as internal standard. The acid extraction of ABA was performed in an apolar phase. A small aliquot of the extract was used to determine radioactivity (with a β-counter), allowing the calculation of the percentage of ABA recovery after-extraction. The rest of the extract was analyzed on an Agilent 1100 capillary chromatography system, with a diode array detector, equipped with a Waters Atlantis™ dC18 150×1 mm column, particle size 3 μm, coupled to an Agilent 1100 series LC/MSD Trap mass spectrometer, equipped with an orthogonal geometry electrospray source and ion trap analyser. The HPLC separation was performed at a flow rate of 30 μl/min, with buffer A (1% v/v acetic acid in water) and buffer B (90% acetonitrile and 10% buffer A) and the following gradient: from 0 to 3 min 100% A, from 3 to 35 min linearly increasing to 100% B, from 35 to 40 min 100% B. The detection wavelength was set at 254 nm. MS (ion 263.3) and MS/MS (ions 219.3; 153.4) spectra were acquired in negative ion mode in the m/z range 50-300.

Structures are written as SMILES. “And” between values parts separate entries of the source, which are not always exact repeats. Identical values can stand only once.

For `CC1=CC(=O)CC(C)(C)[C@@]1(O)/C=C/C(C)=C\C(=O)O` (racemic) [ABA, (±)-cis, trans ABA], the ABA content in the series on human cell types (Fibroblasts (skin)) is 9.0 ± 0.1 (n = 3) pMoles/mg proteins; in the series with human cell types (Granulocytes, freshly isolated), 0.43±0.05 pMoles/mg proteins and 0.43 ± 0.05 (n = 3) pMoles/mg proteins; with human cell types (Lymphocytes, freshly isolated), 0.53±0.1 pMoles/mg proteins and 0.53 ± 0.1 (n = 4) pMoles/mg proteins; in the series on human cell types (Mesenchymal stem cells (bone marrow stroma precursors)) it was 2.63 ± 0.3 (n = 3) pMoles/mg proteins; in the series on human cell types (Monocytes) it was 12.96 ± 2.1 (n = 3) pMoles/mg proteins; in the series on human cell types (Platelets), 0.033 ± 0.01 (n = 3) pMoles/mg proteins. In addition, the ABA content in the series with human cell types (lymphocytes incubated 18 hours with PMA) came to 1.1 ± 0.4 pmol/mg; in series [1] (N9 cells stimulated with LPS) it was 1.3±0.2 pMoles/mg proteins; in series [1] (N9 cells, unstimulated), 0.3±0.05 pMoles/mg proteins. Also, the “intracellular ABA content” value in the series on human cell types (granulocytes stimulated 18 hours with f-MLP) came out at 0.84 ± 0.1 pmol/mg. For the same compound, the “increase of ABA concentration after LPS stimulation” value in series [1] (N9 cells) is “more than 4 times”.

These data come from US7786042B2, “Fluridone as an anti-inflammatory agent” (Universita' Degli Studi Di Genova, priority 2005, dated 2010).
